Test results: article PMC8502911
These are yes or no findings as the source states them, for the method shown. Some results given as binding are weak or reduced against the parent protein; the word gives no strength.

Chains of the proteins cited; added tags and fusions are not shown. Residues count along the entry.
UniProt O15379, residues 1-391: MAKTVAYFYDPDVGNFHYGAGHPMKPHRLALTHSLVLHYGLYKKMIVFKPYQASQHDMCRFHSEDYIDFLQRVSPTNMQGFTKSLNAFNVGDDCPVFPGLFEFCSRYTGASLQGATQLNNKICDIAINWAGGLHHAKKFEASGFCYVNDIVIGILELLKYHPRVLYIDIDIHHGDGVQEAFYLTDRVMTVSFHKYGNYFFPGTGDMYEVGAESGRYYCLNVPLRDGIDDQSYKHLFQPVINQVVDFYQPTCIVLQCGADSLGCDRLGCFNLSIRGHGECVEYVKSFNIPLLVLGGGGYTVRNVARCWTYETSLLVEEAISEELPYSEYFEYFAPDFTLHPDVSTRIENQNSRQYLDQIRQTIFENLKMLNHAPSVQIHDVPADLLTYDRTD

Assays:
[1] = target: T1, mouse NCoR-derived DAD domain (mNCoR 389–498) (mouse) (UniProt Q60974); test: pull-down; His-tagged DAD as bait, HDAC3 proteins as prey, in the presence of IP4; HDAC3(1–428) mixed with its caspase 7-cleaved product or with recombinant HDAC3(1–391); both purified
T1 sequence: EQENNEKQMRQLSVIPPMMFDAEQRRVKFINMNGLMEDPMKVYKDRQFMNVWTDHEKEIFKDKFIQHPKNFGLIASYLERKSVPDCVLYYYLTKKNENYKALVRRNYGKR

[2] = target: T1, mouse NCoR-derived DAD domain (mNCoR 389–498) (mouse); test: pull-down; His-tagged DAD as bait, HDAC3 proteins as prey, in the absence of IP4; HDAC3(1–428) mixed with its caspase 7-cleaved product or with recombinant HDAC3(1–391); both purified

binding [1]: binds weakly | binding [2]: binds weakly
Substance: recombinant HDAC3(1–391) (from UniProt O15379 1-391) (domain or fragment)
